Paper PMC8224940
Results are given in words; binding and its absence hold for the method and conditions named. Binding seen in cells or lysates may run through a third protein. Some results given as binding are weak or reduced against the parent protein; the word gives no strength. Tags and fused reporters may be left off the sequences shown.

Sequences of proteins named here, by UniProt entry; tags and fusion partners are left off. A change or cut given only in a name is not applied to a line headed by its entry.
UniProt Q9BVS4: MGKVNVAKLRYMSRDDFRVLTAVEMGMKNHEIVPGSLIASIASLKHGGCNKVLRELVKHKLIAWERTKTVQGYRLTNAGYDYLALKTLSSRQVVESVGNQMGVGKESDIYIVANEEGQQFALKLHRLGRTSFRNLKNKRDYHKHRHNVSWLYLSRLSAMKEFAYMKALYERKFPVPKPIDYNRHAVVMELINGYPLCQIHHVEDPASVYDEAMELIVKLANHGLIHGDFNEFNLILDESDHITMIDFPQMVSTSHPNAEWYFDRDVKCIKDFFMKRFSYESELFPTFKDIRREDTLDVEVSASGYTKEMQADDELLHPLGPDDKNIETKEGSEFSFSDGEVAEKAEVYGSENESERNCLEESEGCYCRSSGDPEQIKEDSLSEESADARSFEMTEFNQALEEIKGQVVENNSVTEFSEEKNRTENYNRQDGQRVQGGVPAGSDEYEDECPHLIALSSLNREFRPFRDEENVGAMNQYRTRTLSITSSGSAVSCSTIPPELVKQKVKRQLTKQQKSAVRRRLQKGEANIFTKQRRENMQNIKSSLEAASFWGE

Target: T1, HA-tagged NOB1 (UniProt Q9ULX3)
T1 sequence: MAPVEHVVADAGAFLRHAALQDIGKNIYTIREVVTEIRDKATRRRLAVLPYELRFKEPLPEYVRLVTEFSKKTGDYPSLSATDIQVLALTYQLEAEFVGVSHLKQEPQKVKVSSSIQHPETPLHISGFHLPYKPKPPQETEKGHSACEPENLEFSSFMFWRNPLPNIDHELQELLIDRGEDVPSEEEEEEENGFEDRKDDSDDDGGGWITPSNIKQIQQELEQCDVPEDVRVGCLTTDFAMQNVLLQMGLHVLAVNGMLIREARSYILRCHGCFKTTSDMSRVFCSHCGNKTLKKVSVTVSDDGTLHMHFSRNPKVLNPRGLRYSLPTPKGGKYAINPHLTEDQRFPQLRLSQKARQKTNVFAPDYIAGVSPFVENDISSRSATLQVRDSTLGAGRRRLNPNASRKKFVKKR
Assay: co-IP; HA-NOB1 immunoprecipitated from HEK293 cells co-transfected with Flag-RIOK2 (WT, S483A or S483D) (buffer A with 0.1 M KCl); co-purified proteins of pre-40S particles detected by Western blot

Substance	binding
Flag-tagged RIOK2^S483A (from UniProt Q9BVS4 1-552)	binds
Flag-tagged RIOK2^WT (from UniProt Q9BVS4 1-552)	binds
